Results are given in words; binding and its absence hold for the method and conditions named. In cells and extracts the contact can be indirect. Some entries that bind do so weakly or less than the wild type. For part of these data: Sequences can lack the tags named with a protein.

The chains behind the UniProt entries cited, without tags or fusion partners.
UniProt P03372: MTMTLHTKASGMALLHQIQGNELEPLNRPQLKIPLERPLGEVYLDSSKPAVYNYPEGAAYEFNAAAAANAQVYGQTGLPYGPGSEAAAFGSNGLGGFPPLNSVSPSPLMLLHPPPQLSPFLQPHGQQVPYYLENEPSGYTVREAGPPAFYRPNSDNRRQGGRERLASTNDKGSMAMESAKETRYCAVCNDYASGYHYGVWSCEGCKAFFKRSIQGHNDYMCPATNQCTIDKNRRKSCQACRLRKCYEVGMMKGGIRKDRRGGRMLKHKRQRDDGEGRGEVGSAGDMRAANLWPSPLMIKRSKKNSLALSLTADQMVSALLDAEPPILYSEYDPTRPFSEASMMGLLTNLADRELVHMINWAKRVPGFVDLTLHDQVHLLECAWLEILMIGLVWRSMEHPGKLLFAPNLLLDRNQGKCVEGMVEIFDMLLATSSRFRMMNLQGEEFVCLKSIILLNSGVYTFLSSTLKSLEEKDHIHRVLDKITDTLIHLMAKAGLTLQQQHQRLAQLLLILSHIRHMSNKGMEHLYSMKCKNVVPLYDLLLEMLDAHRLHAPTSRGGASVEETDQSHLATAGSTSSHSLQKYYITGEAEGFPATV

These results are taken from paper PMC11365244.

In test [1] the target is T1, Flag-USP36 (human) (UniProt Q9P275).
T1 sequence: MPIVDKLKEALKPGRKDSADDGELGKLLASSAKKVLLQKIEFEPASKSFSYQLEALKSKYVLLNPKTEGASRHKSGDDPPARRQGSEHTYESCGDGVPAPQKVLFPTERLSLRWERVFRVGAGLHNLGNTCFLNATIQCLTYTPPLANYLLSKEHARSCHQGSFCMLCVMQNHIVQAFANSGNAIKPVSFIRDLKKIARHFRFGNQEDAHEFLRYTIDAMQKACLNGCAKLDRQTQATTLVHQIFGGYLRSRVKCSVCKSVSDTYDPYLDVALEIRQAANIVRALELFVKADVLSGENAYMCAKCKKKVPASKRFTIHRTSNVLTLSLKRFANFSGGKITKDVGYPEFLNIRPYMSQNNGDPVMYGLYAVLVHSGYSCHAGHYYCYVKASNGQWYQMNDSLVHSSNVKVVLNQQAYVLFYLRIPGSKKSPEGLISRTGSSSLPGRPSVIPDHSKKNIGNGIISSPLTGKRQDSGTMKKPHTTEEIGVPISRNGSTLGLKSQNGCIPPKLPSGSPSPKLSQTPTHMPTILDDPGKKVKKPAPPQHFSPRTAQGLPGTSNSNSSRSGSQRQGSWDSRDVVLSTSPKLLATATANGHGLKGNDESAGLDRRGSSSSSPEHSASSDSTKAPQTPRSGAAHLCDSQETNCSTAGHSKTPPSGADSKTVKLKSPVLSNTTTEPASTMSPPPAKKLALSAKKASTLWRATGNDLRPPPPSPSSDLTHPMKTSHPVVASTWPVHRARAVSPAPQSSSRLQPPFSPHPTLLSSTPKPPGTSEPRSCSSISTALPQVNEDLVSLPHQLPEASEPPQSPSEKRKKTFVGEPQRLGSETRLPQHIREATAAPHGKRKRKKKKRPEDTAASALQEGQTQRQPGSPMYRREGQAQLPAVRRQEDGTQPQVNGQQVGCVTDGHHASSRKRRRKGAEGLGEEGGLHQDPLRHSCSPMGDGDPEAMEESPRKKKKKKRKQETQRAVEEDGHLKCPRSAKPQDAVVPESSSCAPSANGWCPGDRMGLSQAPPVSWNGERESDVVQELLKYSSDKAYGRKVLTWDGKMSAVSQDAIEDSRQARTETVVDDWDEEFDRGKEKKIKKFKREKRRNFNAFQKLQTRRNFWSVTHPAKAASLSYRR
Kind of test: co-IP; HEK293T cells co-transfected with 2 µg USP36 plasmid and full-length or mutant HA-ERα; after 24 h 10 μM MG132 for 6 h; NP-40 lysis buffer; IP with anti-Flag antibody, blot with anti-HA antibody.

The target in test [2] is full-length HA-ERα (UniProt P03372). Put plainly: co-IP; IP with anti-HA antibody (HA-ERα), USP36 domains detected with anti-Flag antibody; cell line not named for this panel.
The target in test [3] is Estrogen receptor α (ERα), endogenous (human (endogenous in MCF-7)) (UniProt P03372). Kind of test: co-IP; endogenous proteins; lysates of MCF-7 cells precipitated with anti-ERα or anti-USP36 antibodies, precipitates immunoblotted with 2% input sample. (In general: In western blotting, separated proteins are transferred to a membrane and probed.)

On to “full-length HA-ERα (from UniProt P03372 1-595) (receptor)”, for which, in test [1], the binding entry is on record as “binds”.

B1: Flag-USP36 deletion mutant (residues 1–420), USP domain (domain or fragment, UniProt Q9P275 1-420)
chain: MPIVDKLKEALKPGRKDSADDGELGKLLASSAKKVLLQKIEFEPASKSFSYQLEALKSKYVLLNPKTEGASRHKSGDDPPARRQGSEHTYESCGDGVPAPQKVLFPTERLSLRWERVFRVGAGLHNLGNTCFLNATIQCLTYTPPLANYLLSKEHARSCHQGSFCMLCVMQNHIVQAFANSGNAIKPVSFIRDLKKIARHFRFGNQEDAHEFLRYTIDAMQKACLNGCAKLDRQTQATTLVHQIFGGYLRSRVKCSVCKSVSDTYDPYLDVALEIRQAANIVRALELFVKADVLSGENAYMCAKCKKKVPASKRFTIHRTSNVLTLSLKRFANFSGGKITKDVGYPEFLNIRPYMSQNNGDPVMYGLYAVLVHSGYSCHAGHYYCYVKASNGQWYQMNDSLVHSSNVKVVLNQQAYVLFY
Consider B1, for which the binding entry in test [2] is given as “binds”.

B2: Ubiquitin-specific peptidase 36 (USP36), endogenous (enzyme, UniProt Q9P275 1-1123)
chain: T1 sequence
As for B2, in test [3], the binding entry is recorded as “binds”.
